Test results reported in paper PMC7532574.

Protein sequences, listed by entry. Tags and fused reporters are not part of them. Lines headed by an entry give the natural chain unless they say otherwise; changes in a name come on top.
UniProt Q15004: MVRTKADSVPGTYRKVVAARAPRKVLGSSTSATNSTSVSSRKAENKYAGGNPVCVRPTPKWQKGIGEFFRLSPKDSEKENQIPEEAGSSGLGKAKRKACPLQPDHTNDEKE
UniProt O00762: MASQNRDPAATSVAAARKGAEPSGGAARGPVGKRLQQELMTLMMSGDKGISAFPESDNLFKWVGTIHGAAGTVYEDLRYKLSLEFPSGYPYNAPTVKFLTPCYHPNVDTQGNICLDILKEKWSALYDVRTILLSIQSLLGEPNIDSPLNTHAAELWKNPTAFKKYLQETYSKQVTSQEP

Target: KIAA0101 harboring a mutant KEN box (HA-mt-KIAA0101) (human) (UniProt Q15004)
Test: co-IP; lysates of SK-MES-1 cells transfected 48 h with HA-KIAA0101 (wt or mutant KEN box); precleared, precipitated with anti-HA antibody (2 ug/ml) and protein A or G agarose/Sepharose beads, 2 h at room temperature or overnight at 4 °C; washed with PBS; western blotting

Question: “UbcH10 (from UniProt O00762 1-179) (enzyme)” was tested. Which binding did it give?
Answer: The binding was “no binding”.

Results are given in words; binding and its absence hold for the method and conditions named. In cells and extracts the contact can be indirect.
